Test results: PMC12745349
These are yes or no findings as the source states them, for the method shown. In cells and extracts the contact can be indirect. Some binding calls cover weakened binding; strength is not graded here.

By UniProt entry, the sequences of proteins in these tests, tags left out.
UniProt P19474: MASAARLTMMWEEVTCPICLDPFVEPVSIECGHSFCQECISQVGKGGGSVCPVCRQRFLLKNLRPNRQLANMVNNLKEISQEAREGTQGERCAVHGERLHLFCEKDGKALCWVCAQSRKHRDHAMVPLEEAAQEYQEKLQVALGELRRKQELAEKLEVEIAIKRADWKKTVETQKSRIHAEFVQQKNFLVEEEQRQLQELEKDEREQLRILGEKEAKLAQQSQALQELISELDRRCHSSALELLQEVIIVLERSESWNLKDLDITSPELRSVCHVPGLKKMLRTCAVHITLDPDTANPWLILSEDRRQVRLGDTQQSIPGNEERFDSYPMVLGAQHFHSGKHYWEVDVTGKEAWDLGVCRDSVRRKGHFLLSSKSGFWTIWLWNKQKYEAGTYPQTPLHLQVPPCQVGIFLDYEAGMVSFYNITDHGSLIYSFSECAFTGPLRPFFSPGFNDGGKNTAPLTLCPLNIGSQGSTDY
UniProt Q9HAU4: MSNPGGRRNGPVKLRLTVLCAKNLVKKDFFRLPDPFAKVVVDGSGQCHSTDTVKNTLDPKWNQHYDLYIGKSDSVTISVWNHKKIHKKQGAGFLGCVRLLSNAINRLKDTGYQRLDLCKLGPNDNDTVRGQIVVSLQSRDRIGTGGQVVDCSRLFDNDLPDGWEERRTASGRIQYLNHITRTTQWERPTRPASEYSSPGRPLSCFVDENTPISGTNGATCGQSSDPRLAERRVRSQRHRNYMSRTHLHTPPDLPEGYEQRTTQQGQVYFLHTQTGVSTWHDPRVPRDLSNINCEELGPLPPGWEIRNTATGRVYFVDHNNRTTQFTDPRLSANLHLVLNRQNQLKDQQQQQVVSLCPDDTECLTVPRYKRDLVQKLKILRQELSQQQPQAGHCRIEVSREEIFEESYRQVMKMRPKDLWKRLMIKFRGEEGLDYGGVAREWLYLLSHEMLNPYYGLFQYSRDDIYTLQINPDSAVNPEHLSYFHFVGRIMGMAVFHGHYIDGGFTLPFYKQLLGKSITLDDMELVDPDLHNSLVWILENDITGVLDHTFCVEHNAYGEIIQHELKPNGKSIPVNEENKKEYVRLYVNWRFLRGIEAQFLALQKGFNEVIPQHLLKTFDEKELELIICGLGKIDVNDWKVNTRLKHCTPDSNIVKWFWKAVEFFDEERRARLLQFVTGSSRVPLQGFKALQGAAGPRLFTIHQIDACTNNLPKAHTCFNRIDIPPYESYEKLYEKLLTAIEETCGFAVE

Target: Tripartite Motif Containing 21 (TRIM21) (human (endogenous in human cardiac fibroblasts)) (UniProt P19474)
Assay: co-IP; endogenous proteins in human cardiac fibroblast lysates (RIPA buffer); primary antibody overnight at 4 °C, protein G Sepharose beads, PBS washes, immunoblot; also after TGF-β treatment of the cells

binding: binds
Substance: SMAD Specific E3 Ubiquitin Protein Ligase 2 (Smurf2) (from UniProt Q9HAU4 1-748)
